In PubChem BioAssay (EPA / NIEHS):
The inconclusive results got no clear call from the source; some entries with a clear call stand among them for comparison. For some of these results: Potencies of inconclusive entries are doubtful fits and often do not repeat. The source made the active and inactive calls. Rule for the calls: active = hit-call score of the fitted dose curve at least 0.9, where 1 is the maximum; inconclusive = response in the unintended direction; inactive = score below 0.9.

Protein sequences, listed by entry. Tags and fused reporters are not part of them. Lines headed by an entry give the natural chain unless they say otherwise; changes in a name come on top.
UniProt Q15678: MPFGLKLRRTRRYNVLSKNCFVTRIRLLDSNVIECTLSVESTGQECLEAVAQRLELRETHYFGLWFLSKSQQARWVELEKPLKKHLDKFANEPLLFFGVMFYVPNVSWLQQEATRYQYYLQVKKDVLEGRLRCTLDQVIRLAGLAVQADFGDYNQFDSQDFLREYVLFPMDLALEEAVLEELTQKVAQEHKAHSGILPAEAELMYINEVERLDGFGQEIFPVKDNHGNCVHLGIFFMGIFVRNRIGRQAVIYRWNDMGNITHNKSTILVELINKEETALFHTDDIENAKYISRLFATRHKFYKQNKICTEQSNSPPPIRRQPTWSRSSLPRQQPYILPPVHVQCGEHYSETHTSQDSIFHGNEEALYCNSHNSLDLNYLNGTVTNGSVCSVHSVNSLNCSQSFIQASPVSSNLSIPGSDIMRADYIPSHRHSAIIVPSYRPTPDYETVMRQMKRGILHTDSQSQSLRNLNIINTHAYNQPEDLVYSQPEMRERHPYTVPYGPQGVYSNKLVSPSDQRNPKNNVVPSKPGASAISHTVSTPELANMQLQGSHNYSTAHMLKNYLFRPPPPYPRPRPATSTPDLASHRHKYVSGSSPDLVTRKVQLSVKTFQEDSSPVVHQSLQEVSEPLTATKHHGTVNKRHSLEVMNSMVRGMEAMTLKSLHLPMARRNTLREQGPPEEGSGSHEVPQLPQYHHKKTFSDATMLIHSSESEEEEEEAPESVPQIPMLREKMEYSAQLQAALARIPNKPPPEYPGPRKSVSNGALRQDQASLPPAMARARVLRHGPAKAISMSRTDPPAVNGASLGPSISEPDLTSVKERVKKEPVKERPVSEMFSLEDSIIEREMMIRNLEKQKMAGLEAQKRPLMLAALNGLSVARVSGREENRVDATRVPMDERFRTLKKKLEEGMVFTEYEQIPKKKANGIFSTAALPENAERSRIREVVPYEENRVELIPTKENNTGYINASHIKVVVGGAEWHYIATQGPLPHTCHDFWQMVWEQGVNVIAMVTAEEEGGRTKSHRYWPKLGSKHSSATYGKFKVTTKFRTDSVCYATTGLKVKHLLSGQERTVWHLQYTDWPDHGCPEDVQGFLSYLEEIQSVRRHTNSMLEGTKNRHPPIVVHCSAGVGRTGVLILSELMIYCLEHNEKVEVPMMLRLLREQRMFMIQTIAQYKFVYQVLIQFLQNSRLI
UniProt P29074: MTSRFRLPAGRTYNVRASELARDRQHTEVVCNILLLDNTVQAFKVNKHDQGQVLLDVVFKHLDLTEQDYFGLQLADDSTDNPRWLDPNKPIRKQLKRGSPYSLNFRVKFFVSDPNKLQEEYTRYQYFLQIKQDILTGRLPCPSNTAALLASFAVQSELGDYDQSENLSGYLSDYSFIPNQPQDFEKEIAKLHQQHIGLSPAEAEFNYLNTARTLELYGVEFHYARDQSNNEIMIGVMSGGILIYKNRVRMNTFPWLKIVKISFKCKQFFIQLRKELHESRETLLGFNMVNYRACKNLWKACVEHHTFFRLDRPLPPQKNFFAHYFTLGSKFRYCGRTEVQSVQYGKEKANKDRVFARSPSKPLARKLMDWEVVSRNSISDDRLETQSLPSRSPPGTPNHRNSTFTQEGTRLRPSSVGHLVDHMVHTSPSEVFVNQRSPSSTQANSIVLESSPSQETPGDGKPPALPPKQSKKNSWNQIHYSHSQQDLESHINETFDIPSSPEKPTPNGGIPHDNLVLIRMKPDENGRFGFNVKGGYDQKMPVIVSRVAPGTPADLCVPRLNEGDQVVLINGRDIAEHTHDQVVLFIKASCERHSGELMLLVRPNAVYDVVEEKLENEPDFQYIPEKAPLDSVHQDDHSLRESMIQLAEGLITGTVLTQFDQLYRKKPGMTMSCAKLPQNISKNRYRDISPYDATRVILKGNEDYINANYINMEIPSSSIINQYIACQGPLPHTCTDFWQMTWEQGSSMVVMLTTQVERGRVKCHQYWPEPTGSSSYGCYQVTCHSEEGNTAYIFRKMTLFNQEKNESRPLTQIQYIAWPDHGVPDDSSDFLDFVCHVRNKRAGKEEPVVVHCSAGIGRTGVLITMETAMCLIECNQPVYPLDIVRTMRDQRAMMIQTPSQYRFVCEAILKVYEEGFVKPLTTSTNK
UniProt P18031: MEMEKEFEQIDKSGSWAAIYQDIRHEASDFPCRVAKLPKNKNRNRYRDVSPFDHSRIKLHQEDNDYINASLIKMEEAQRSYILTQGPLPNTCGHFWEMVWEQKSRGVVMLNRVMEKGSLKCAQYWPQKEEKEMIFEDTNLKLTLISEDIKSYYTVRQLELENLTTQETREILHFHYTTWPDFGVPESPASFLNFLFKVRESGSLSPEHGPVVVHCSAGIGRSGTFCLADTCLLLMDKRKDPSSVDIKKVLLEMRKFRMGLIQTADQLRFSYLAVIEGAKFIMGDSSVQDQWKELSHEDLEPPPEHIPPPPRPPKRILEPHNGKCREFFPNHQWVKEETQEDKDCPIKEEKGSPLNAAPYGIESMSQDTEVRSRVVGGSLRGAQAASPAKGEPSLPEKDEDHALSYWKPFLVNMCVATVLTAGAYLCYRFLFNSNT
UniProt P35813: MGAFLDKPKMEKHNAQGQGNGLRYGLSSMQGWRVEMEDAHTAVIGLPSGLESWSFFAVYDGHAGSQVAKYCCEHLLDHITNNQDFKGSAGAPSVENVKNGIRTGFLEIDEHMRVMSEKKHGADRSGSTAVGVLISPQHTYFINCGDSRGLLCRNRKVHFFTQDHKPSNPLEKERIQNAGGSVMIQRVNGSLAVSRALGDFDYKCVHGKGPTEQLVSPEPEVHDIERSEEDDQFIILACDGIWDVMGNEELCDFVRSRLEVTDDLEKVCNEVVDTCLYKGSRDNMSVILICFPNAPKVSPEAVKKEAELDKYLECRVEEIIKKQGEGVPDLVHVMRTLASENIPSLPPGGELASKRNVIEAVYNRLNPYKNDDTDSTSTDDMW
UniProt P23467: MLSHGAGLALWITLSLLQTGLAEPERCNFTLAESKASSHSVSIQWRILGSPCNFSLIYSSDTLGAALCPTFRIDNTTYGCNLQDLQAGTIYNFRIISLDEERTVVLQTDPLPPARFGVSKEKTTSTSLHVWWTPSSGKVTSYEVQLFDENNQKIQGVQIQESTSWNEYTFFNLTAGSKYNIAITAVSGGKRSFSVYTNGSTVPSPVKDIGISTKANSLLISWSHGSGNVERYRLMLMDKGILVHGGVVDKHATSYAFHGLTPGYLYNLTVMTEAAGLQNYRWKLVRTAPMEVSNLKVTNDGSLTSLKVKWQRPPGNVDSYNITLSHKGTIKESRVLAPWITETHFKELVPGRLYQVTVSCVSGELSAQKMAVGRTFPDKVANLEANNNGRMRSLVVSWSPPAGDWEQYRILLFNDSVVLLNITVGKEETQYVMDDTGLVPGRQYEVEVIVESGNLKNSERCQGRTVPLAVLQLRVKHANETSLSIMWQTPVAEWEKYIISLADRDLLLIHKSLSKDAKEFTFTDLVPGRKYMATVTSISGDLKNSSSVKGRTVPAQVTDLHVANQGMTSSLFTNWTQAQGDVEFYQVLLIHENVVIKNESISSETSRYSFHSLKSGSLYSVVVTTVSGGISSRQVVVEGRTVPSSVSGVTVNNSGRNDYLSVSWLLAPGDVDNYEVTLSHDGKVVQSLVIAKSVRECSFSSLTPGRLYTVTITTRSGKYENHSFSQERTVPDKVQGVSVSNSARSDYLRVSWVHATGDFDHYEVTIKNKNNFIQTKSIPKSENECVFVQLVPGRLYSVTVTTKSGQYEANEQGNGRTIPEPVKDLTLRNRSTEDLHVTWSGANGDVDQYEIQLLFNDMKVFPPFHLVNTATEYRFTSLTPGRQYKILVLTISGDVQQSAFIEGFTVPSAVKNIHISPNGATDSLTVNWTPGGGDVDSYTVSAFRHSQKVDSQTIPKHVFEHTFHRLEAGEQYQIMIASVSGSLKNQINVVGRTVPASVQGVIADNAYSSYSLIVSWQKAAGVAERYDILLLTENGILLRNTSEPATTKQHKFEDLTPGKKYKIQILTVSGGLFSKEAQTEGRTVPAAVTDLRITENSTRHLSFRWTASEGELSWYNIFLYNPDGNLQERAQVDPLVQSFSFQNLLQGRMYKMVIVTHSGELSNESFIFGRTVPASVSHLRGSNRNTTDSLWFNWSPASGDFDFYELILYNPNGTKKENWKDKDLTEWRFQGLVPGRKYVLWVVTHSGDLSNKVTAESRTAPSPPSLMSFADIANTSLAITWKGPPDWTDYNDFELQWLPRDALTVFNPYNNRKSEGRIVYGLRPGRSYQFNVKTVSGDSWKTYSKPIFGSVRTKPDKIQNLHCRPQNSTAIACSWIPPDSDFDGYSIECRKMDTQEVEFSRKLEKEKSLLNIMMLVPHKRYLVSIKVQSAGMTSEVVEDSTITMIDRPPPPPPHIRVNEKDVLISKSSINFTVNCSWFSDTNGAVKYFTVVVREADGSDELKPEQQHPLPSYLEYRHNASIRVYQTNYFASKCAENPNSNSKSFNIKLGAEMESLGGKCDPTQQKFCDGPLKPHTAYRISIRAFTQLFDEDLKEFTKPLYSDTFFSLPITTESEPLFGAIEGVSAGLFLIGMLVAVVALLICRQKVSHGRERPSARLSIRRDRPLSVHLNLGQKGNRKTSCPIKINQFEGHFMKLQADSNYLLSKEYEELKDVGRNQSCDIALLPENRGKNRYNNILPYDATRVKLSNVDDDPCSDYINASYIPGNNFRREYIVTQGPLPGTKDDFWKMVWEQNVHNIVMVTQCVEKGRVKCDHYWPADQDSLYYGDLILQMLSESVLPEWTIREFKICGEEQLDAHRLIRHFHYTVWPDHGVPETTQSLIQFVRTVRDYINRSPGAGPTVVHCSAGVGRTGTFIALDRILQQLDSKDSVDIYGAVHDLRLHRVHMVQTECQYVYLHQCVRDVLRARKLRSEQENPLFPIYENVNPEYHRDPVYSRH
UniProt Q13464: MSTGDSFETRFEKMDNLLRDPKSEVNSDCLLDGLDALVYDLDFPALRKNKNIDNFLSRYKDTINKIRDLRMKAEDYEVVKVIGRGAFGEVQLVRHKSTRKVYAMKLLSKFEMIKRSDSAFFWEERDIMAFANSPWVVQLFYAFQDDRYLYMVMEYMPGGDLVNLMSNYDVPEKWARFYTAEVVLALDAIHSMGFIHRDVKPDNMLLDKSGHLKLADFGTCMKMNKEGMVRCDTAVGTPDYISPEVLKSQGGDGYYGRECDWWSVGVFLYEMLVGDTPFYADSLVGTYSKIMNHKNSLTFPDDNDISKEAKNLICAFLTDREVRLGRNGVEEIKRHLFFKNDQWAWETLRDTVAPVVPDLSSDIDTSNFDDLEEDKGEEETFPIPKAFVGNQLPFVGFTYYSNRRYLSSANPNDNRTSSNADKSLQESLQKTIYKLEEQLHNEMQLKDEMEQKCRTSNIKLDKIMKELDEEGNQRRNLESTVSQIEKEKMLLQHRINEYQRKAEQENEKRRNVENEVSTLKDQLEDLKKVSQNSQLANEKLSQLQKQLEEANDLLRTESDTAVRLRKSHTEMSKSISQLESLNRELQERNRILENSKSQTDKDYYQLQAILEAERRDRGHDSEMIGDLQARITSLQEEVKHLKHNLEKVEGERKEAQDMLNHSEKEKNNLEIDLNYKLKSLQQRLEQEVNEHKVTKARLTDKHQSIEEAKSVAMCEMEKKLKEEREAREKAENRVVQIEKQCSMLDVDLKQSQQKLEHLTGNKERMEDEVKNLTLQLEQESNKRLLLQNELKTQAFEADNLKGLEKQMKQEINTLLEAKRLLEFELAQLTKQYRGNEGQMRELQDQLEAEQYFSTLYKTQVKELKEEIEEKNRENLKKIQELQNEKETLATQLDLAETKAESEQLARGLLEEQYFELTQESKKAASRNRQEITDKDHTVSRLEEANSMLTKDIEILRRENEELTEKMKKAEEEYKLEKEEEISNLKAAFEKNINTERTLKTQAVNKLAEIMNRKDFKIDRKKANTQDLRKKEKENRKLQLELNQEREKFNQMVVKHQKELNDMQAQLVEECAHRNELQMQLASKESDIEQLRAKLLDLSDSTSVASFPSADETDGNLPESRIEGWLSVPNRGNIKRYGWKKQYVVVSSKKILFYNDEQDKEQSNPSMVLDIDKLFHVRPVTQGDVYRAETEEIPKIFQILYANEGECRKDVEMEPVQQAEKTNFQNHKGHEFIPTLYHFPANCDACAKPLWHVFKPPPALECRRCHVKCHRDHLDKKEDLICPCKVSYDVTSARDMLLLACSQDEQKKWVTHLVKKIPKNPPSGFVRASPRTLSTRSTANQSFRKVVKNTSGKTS

Legend:
[1] = molecular target: human Phosphoinositide 3-kinase alpha (PI3Ka), PIK3CA (gene 5290) (UniProt P42336); assay: NVS_ENZ_hPI3Ka: NovaScreen (NVS) Enzymatic Assay for human Phosphoinositide 3-kinase alpha (PI3Ka) (AID 2283196)
Summary of the method: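 Duplicate single-point screen (25 uM), then singleton dose-response (max 50 uM) for compounds meeting the threshold. Cell-free kinase reaction, 1 h; fluorescent mobility-shift readout.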

[2] = molecular target: human Protein Tyrosine Phosphatase Receptor Type F (PTPRF), PTPRF (gene 5792) (UniProt P10586); assay: NVS_ENZ_hPTPRF: NovaScreen (NVS) Enzymatic Assay for human Protein Tyrosine Phosphatase Receptor Type F (PTPRF) (AID 2283213)
Summary of the method: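 Cell-free fluorescence enzyme assay with recombinant protein and substrate; product separated by electrophoretic mobility shift. Read 1 h after dosing, single 25 uM duplicate screen, then concentration-response up to 50 uM; loss of signal vs DMSO.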

[3] = molecular target: Serine/threonine-protein phosphatase PP1-alpha catalytic subunit (Homo sapiens) (UniProt P62136); assay: NVS_ENZ_hPPP1CA: NovaScreen (NVS) Enzymatic Assay for human Protein Phosphatase 1 Aatalytic subunit Alpha (PPP1CA) (AID 2283200)
Summary of the method: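 Chemicals were first screened in duplicate at 25 uM, and those passing threshold (e.g. 30% inhibition) were run as concentration series to 50 uM. Cell-free recombinant protein, 1.33 h read, fluorescent substrate/product mobility-shift detection, normalised to DMSO.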

[4] = molecular target: human Sirtuin 2 (SIRT2), SIRT2 (gene 22933) (UniProt Q8IXJ6); assay: NVS_ENZ_hSIRT2: NovaScreen (NVS) Enzymatic Assay for human Sirtuin 2 (SIRT2) (AID 2283217)
Summary of the method: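 Single-point duplicate screen at 25 uM, then concentration-response (max 50 uM) for chemicals passing threshold. Enzyme activity of recombinant human SIRT2 measured after 1 hr by fluorescence with mobility-shift separation of product; DMSO baseline.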

[5] = molecular target: Tyrosine-protein phosphatase non-receptor type 11 (Homo sapiens) (UniProt Q06124); assay: NVS_ENZ_hPTPN11: NovaScreen (NVS) Enzymatic Assay for human Protein Tyrosine Phosphatase Non-receptor Type 11 (PTPN11) (AID 2283202)
Summary of the method: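 Compounds first tested in duplicate at 25 uM; those reaching ~30% inhibition rerun in singleton concentration-response, top 50 uM. Phosphatase activity measured after 0.5 h by fluorescence with mobility-shift separation, relative to DMSO.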

[6] = molecular target: Tyrosine-protein phosphatase non-receptor type 14 (Homo sapiens) (UniProt Q15678); assay: NVS_ENZ_hPTPN14: NovaScreen (NVS) Enzymatic Assay for human Protein Tyrosine Phosphatase Non-receptor Type 14 (PTPN14) (AID 2283206)
Summary of the method: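 Fluorescent substrate turnover by recombinant human PTPN14 was measured 0.5 h after compound addition, with substrate and product separated by mobility shift. Single-point screening at 25 uM, then concentration-response up to 50 uM for chemicals meeting threshold (e.g., 30% inhibition).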

[7] = molecular target: human Protein Tyrosine Phosphatase Non-receptor Type 4 (PTPN4), PTPN4 (gene 5775) (UniProt P29074); assay: NVS_ENZ_hPTPN4: NovaScreen (NVS) Enzymatic Assay for human Protein Tyrosine Phosphatase Non-receptor Type 4 (PTPN4) (AID 2283208)
Summary of the method: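 Screened in duplicate at 25 uM, with hits then titrated to a top concentration of 50 uM. Recombinant Sf9-derived PTPN4 turnover was read by fluorescence with electrophoretic separation, 1.33 h after compound addition. DMSO served as baseline.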

[8] = molecular target: human Protein Tyrosine Phosphatase Non-receptor Type 1 (PTPN1), PTPN1 (gene 5770) (UniProt P18031); assay: NVS_ENZ_hPTPN1: NovaScreen (NVS) Enzymatic Assay for human Protein Tyrosine Phosphatase Non-receptor Type 1 (PTPN1) (AID 2283201)
Summary of the method: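 Chemicals were first tested in duplicate at 25 uM, and those passing threshold went on to singleton concentration series topping at 50 uM. Recombinant enzyme, specific substrate, product separated by mobility shift, fluorescence read at 1.33 h; activity loss relative to DMSO.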

[9] = molecular target: human Protein Phosphatase, Mg2+/Mn2+ Dependent 1A (PPM1A), PPM1A (gene 5494) (UniProt P35813); assay: NVS_ENZ_hPPM1A: NovaScreen (NVS) Enzymatic Assay for human Protein Phosphatase, Mg2+/Mn2+ Dependent 1A (PPM1A) (AID 2283198)
Summary of the method: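 Primary screen in duplicate at 25 uM, with actives then titrated to a maximum of 50 uM. Recombinant PPM1A dephosphorylation of fluorescent substrate measured at 1 h, with substrate and product separated by mobility shift; inhibition fitted against DMSO.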

[10] = molecular target: Tyrosine-protein phosphatase non-receptor type 12 (Homo sapiens) (UniProt Q05209); assay: NVS_ENZ_hPTPN12: NovaScreen (NVS) Enzymatic Assay for human Protein Tyrosine Phosphatase Non-receptor Type 12 (PTPN12) (AID 2283204)
Summary of the method: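 Single-concentration duplicates (25 uM) preceded singleton concentration-response up to 50 uM for chemicals passing threshold. Cell-free recombinant PTPN12 activity was read 1.33 h after dosing via fluorescence after mobility-shift separation; loss of signal versus DMSO.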

[11] = molecular target: Tyrosine-protein phosphatase non-receptor type 13 (Homo sapiens) (UniProt Q12923); assay: NVS_ENZ_hPTPN13: NovaScreen (NVS) Enzymatic Assay for human Protein Tyrosine Phosphatase Non-receptor Type 13 (PTPN13) (AID 2283205)
Summary of the method: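 Screened first at a single 25 uM in duplicate; compounds passing the threshold (e.g. 30% inhibition) were rerun in concentration series, top 50 uM. Recombinant enzyme, fluorescent substrate, mobility-shift separation, 0.5 h read. Data fitted as inhibition relative to DMSO.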

[12] = molecular target: human Protein Tyrosine Phosphatase Non-receptor Type 9 (PTPN9), PTPN9 (gene 5780) (UniProt P43378); assay: NVS_ENZ_hPTPN9: NovaScreen (NVS) Enzymatic Assay for human Protein Tyrosine Phosphatase Non-receptor Type 9 (PTPN9) (AID 2283209)
Summary of the method: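 Sf9-expressed enzyme in a cell-free assay, fluorescence read 1.33 h after dosing with mobility-shift separation of substrate and product. Tested at 25 uM in duplicate, then up to 50 uM; signal loss versus DMSO.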

[13] = molecular target: human Protein Tyrosine Phosphatase Receptor Type B (PTPRB), PTPRB (gene 5787) (UniProt P23467); assay: NVS_ENZ_hPTPRB: NovaScreen (NVS) Enzymatic Assay for human Protein Tyrosine Phosphatase Receptor Type B (PTPRB) (AID 2283211)
Summary of the method: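 Recombinant human PTPRB with a fluorescent substrate, product separated by electrophoretic mobility shift; read 1 h after dosing. Primary screen in duplicate at 25 uM; actives then retested in concentration series; loss of signal versus DMSO.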

[14] = molecular target: human Rho Associated Coiled-coil Containing Protein Kinase 1 (ROCK1), ROCK1 (gene 6093) (UniProt Q13464); assay: NVS_ENZ_hROCK1: NovaScreen (NVS) Enzymatic Assay for human Rho Associated Coiled-coil Containing Protein Kinase 1 (ROCK1) (AID 2283214)
Summary of the method: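 Compounds first run in duplicate at 25 uM against recombinant human ROCK1, then followed in concentration series. Kinase activity was read 1 h post-dosing by fluorescence with mobility-shift separation, as signal loss relative to DMSO.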

## Nc1cccc2c(N)cccc12
[1]
  AC50: inconclusive: 0.0498 µM
[2]
  outcome: inactive

## CC(=O)C(C)=CC1C(C)=CCCC1(C)C (configuration not stated)
[3]
  AC50: inconclusive: 25 µM

## CC(C)(c1cc(Br)c(OCCO)c(Br)c1)c1cc(Br)c(OCCO)c(Br)c1
[1]
  AC50: active: 2.62 µM

## O=C1O[C@H]([C@@H](O)CO)C(O)=C1O
[1]
  outcome: inactive
[4]
  AC50: inconclusive: 25 µM

## Nc1nc2ncc(CNc3ccc(C(=O)N[C@@H](CCC(=O)O)C(=O)O)cc3)nc2c(=O)[nH]1
[5]
  AC50: active: 30.2 µM
[6]
  AC50: active: 14.9 µM
[7]
  AC50: active: 41.9 µM

## COC(=O)c1c(Cl)nn(C)c1S(=O)(=O)NC(=O)Nc1nc(OC)cc(OC)n1
[1]
  AC50: inconclusive: 25 µM

## CCCN(C1CCN(C(=O)C2CCNCC2)CC1)[C@@H]1CCc2ccc(OC)cc2C1
[8]
  AC50: inconclusive: 25 µM

## CCOc1ccc(NC(=O)CC(C)=O)cc1
[1]
  outcome: inactive

## CCCOc1sc(C(=O)N2CCC(c3cc(CN)ccc3F)CC2)c(C)c1Br
[9]
  outcome: inactive

## CCCCCCc1ccc(O)cc1O
[3]
  outcome: inactive

## CC(C)(C)c1ccccc1
[9]
  AC50: inconclusive: 6.86 µM

## O=S(=O)(O)c1ccc(N=Nc2c(O)ccc3cc(S(=O)(=O)O)ccc23)cc1
[9]
  AC50: inconclusive: 25 µM

## CCCCCCC(=O)OCC
[9]
  outcome: inactive

## C=C(C)C(=O)OCCOCCOCCOCCOC(=O)C(=C)C
[1]
  AC50: inconclusive: 25 µM

## CN(C)c1ccc(N=NS(=O)(=O)O)cc1
[1]
  AC50: inconclusive: 23.8 µM
[3]
  AC50: inconclusive: 23.8 µM
[5]
  AC50: inconclusive: 1.06 µM
[10]
  AC50: active: 12.5 µM
[11]
  AC50: active: 16.4 µM
[12]
  outcome: inactive
[13]
  outcome: inactive

## CCc1ccc(CCOc2ccc(CC3SC(=O)NC3=O)cc2)nc1 (configuration not stated)
[1]
  AC50: inconclusive: 6.19 µM
[4]
  AC50: inconclusive: 0.142 µM

## O=C(O)c1cccnc1
[8]
  AC50: inconclusive: 0.87 µM

## CC(=O)c1ccccc1
[9]
  AC50: inconclusive: 11.5 µM
[14]
  outcome: inactive

## C=CCOC(Cn1ccnc1)c1ccc(Cl)cc1Cl (configuration not stated)
[5]
  AC50: inconclusive: 0.00229 µM

## CCCc1ccccc1
[1]
  AC50: inconclusive: 25 µM

## Cc1occc1C(=O)Nc1ccc(C(=O)N2CCC(F)(F)/C(=C\C(=O)N3CCC(N4CCCCC4)CC3)c3ccccc32)cc1
[8]
  AC50: inconclusive: 8.75 µM

## C#C[C@]1(O)CC[C@H]2[C@@H]3CCC4=Cc5oncc5C[C@]4(C)[C@H]3CC[C@@]21C
[1]
  outcome: inactive

## NC(N)=O
[3]
  AC50: inconclusive: 6.56 µM
[4]
  AC50: inconclusive: 25 µM

## C/C=C/c1ccc(OC)cc1
[9]
  AC50: inconclusive: 25 µM
